Paper doi:10.1101/2024.05.26.595989
Results are given in words; binding and its absence hold for the method and conditions named. Some binding calls cover weakened binding; strength is not graded here.

The chains behind the UniProt entries cited, without tags or fusion partners.
UniProt Q06518: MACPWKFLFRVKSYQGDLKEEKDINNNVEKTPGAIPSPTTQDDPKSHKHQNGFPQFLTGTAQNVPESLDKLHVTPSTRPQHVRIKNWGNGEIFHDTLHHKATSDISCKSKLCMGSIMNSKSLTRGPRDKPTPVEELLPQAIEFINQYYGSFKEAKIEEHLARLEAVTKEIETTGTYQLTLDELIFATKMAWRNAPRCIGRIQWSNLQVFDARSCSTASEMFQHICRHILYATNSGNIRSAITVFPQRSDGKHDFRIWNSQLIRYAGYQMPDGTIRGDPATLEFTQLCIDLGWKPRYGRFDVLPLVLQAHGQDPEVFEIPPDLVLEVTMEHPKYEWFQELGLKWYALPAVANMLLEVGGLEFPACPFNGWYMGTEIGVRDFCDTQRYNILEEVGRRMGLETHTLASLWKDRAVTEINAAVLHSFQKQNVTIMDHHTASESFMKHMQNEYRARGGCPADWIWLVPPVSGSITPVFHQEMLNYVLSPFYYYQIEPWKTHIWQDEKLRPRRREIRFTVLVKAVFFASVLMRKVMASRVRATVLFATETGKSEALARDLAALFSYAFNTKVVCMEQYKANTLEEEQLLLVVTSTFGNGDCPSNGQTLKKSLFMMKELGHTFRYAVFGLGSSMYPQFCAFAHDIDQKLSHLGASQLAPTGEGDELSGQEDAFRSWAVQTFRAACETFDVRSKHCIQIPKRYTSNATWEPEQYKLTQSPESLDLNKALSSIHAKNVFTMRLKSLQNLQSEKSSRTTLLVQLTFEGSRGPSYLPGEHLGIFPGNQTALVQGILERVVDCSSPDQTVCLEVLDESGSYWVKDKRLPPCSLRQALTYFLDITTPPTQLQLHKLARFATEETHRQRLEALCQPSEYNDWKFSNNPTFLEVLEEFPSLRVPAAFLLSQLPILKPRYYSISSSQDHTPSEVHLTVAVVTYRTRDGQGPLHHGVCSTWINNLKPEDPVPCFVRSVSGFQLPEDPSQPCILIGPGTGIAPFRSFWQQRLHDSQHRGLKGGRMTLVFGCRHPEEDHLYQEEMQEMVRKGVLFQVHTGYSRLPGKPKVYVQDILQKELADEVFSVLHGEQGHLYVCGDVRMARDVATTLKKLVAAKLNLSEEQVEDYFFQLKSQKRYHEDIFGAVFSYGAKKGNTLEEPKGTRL

Target: inducible nitric oxide synthase (iNOS), rat, endogenous in H-4-II-E hepatoma cells (rat (endogenous in H-4-II-E)) (UniProt Q06518)
Assay: non-reducing SDS-PAGE with immunoblot

Substance: inducible nitric oxide synthase (iNOS), rat, endogenous in H-4-II-E hepatoma cells (from UniProt Q06518 1-1147) (enzyme)
- binding: binds
